Read-outs that look alike come from different tables or passages of the source. These are yes or no findings as the source states them, for the method shown. In cells and extracts the contact can be indirect. These calls come from enrichment with a bait or labelling near it, and not all partners need be listed.
How the values were obtained:
Assay in all cases: affinity purification with mass spectrometry
[1] = biological target: FLAG-tagged TRIM25 wild-type (human) (UniProt Q14258)
[2] = biological target: FLAG-tagged TRIM25-R54P (human) (UniProt Q14258)
[3] = biological target: FLAG-tagged TRIM25-R54P (human) (UniProt Q14258); remark: listed apart in the source
[4] = biological target: FLAG-tagged TRIM25 wild-type (human) (UniProt Q14258); remark: listed apart in the source

The chains behind the UniProt entries cited, without tags or fusion partners. Where a name states a change or a piece, a line headed by the entry shows the natural chain unless it says otherwise.
UniProt Q14258: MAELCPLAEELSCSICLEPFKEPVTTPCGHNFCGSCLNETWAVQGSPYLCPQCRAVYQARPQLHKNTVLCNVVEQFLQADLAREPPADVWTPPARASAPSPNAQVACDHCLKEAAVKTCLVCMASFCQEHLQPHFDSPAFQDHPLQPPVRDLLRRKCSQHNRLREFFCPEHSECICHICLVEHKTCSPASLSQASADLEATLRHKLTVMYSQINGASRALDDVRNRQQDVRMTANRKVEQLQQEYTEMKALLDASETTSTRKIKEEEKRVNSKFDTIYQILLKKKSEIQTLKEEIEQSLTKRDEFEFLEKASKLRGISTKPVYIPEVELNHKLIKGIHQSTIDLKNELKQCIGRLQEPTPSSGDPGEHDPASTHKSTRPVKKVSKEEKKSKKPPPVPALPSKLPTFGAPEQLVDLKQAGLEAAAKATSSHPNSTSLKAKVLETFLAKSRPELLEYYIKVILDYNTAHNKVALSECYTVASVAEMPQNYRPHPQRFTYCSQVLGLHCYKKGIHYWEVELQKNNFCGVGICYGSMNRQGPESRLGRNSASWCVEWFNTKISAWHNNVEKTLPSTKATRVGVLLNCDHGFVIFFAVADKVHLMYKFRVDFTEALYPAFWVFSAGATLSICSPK
UniProt P15531: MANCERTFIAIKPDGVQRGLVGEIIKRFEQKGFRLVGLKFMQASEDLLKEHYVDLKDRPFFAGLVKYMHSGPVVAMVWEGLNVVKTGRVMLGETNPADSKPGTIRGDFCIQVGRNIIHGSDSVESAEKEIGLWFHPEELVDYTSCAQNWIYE

| Molecule | binding [1] | binding [2] | binding [3] | binding [4] |
| --- | --- | --- | --- | --- |
| endogenous G3BP1 (from UniProt Q13283 1-466) | binds | binds | – | – |
| endogenous NME1 (from UniProt P15531 1-152) (enzyme) | binds | binds | – | – |
| MOV10 (protein, UniProt Q9HCE1 1-1003) MPSKFSCRQLREAGQCFESFLVVRGLDMETDRERLRTIYNRDFKISFGTPAPGFSSMLYGMKIANLAYVTKTRVRFFRLDRWADVRFPEKRRMKLGSDISKHHKSLLAKIFYDRAEYLHGKHGVDVEVQGPHEARDGQLLIRLDLNRKEVLTLRLRNGGTQSVTLTHLFPLCRTPQFAFYNEDQELPCPLGPGECYELHVHCKTSFVGYFPATVLWELLGPGESGSEGAGTFYIARFLAAVAHSPLAAQLKPMTPFKRTRITGNPVVTNRIEEGERPDRAKGYDLELSMALGTYYPPPRLRQLLPMLLQGTSIFTAPKEIAEIKAQLETALKWRNYEVKLRLLLHLEELQMEHDIRHYDLESVPMTWDPVDQNPRLLTLEVPGVTESRPSVLRGDHLFALLSSETHQEDPITYKGFVHKVELDRVKLSFSMSLLSRFVDGLTFKVNFTFNRQPLRVQHRALELTGRWLLWPMLFPVAPRDVPLLPSDVKLKLYDRSLESNPEQLQAMRHIVTGTTRPAPYIIFGPPGTGKTVTLVEAIKQVVKHLPKAHILACAPSNSGADLLCQRLRVHLPSSIYRLLAPSRDIRMVPEDIKPCCNWDAKKGEYVFPAKKKLQEYRVLITTLITAGRLVSAQFPIDHFTHIFIDEAGHCMEPESLVAIAGLMEVKETGDPGGQLVLAGDPRQLGPVLRSPLTQKHGLGYSLLERLLTYNSLYKKGPDGYDPQFITKLLRNYRSHPTILDIPNQLYYEGELQACADVVDRERFCRWAGLPRQGFPIIFHGVMGKDEREGNSPSFFNPEEAATVTSYLKLLLAPSSKKGKARLSPRSVGVISPYRKQVEKIRYCITKLDRELRGLDDIKDLKVGSVEEFQGQERSVILISTVRSSQSFVQLDLDFNLGFLKNPKRFNVAVTRAKALLIIVGNPLLLGHDPDWKVFLEFCKENGGYTGCPFPAKLDLQQGQNLLQGLSKLSPSTSGPHSHDYLPQEREGEGGLSLQVEPEWRNEL | – | – | binds | – |
| endogenous G3BP2 (protein, UniProt Q9UN86 1-482) MVMEKPSPLLVGREFVRQYYTLLNKAPEYLHRFYGRNSSYVHGGVDASGKPQEAVYGQNDIHHKVLSLNFSECHTKIRHVDAHATLSDGVVVQVMGLLSNSGQPERKFMQTFVLAPEGSVPNKFYVHNDMFRYEDEVFGDSEPELDEESEDEVEEEQEERQPSPEPVQENANSGYYEAHPVTNGIEEPLEESSHEPEPEPESETKTEELKPQVEEKNLEELEEKSTTPPPAEPVSLPQEPPKAFSWASVTSKNLPPSGTVSSSGIPPHVKAPVSQPRVEAKPEVQSQPPRVREQRPRERPGFPPRGPRPGRGDMEQNDSDNRRIIRYPDSHQLFVGNLPHDIDENELKEFFMSFGNVVELRINTKGVGGKLPNFGFVVFDDSEPVQRILIAKPIMFRGEVRLNVEEKKTRAARERETRGGGDDRRDIRRNDRGPGGPRGIVGGGMMRDRDGRGPPPRGGMAQKLGSGRGTGQMEGRFTGQRR | – | – | binds | binds |
| endogenous UPF1 (protein, UniProt Q92900 1-1129) MSVEAYGPSSQTLTFLDTEEAELLGADTQGSEFEFTDFTLPSQTQTPPGGPGGPGGGGAGGPGGAGAGAAAGQLDAQVGPEGILQNGAVDDSVAKTSQLLAELNFEEDEEDTYYTKDLPIHACSYCGIHDPACVVYCNTSKKWFCNGRGNTSGSHIVNHLVRAKCKEVTLHKDGPLGETVLECYNCGCRNVFLLGFIPAKADSVVVLLCRQPCASQSSLKDINWDSSQWQPLIQDRCFLSWLVKIPSEQEQLRARQITAQQINKLEELWKENPSATLEDLEKPGVDEEPQHVLLRYEDAYQYQNIFGPLVKLEADYDKKLKESQTQDNITVRWDLGLNKKRIAYFTLPKTDSGNEDLVIIWLRDMRLMQGDEICLRYKGDLAPLWKGIGHVIKVPDNYGDEIAIELRSSVGAPVEVTHNFQVDFVWKSTSFDRMQSALKTFAVDETSVSGYIYHKLLGHEVEDVIIKCQLPKRFTAQGLPDLNHSQVYAVKTVLQRPLSLIQGPPGTGKTVTSATIVYHLARQGNGPVLVCAPSNIAVDQLTEKIHQTGLKVVRLCAKSREAIDSPVSFLALHNQIRNMDSMPELQKLQQLKDETGELSSADEKRYRALKRTAERELLMNADVICCTCVGAGDPRLAKMQFRSILIDESTQATEPECMVPVVLGAKQLILVGDHCQLGPVVMCKKAAKAGLSQSLFERLVVLGIRPIRLQVQYRMHPALSAFPSNIFYEGSLQNGVTAADRVKKGFDFQWPQPDKPMFFYVTQGQEEIASSGTSYLNRTEAANVEKITTKLLKAGAKPDQIGIITPYEGQRSYLVQYMQFSGSLHTKLYQEVEIASVDAFQGREKDFIILSCVRANEHQGIGFLNDPRRLNVALTRARYGVIIVGNPKALSKQPLWNHLLNYYKEQKVLVEGPLNNLRESLMQFSKPRKLVNTINPGARFMTTAMYDAREAIIPGSVYDRSSQGRPSSMYFQTHDQIGMISAGPSHVAAMNIPIPFNLVMPPMPPPGYFGQANGPAAGRGTPKGKTGRGGRQKNRFGLPGPSQTNLPNSQASQDVASQPFSQGALTQGYISMSQPSQMSQPGLSQPELSQDSYLGDEFKSQIDVALSQDSTYQGERAYQHGGVTGLSQY | – | – | binds | binds |
| RTRAF (protein, UniProt Q9Y224 1-244) MFRRKLTALDYHNPAGFNCKDETEFRNFIVWLEDQKIRHYKIEDRGNLRNIHSSDWPKFFEKYLRDVNCPFKIQDRQEAIDWLLGLAVRLEYGDNAEKYKDLVPDNSKTADNATKNAEPLINLDVNNPDFKAGVMALANLLQIQRHDDYLVMLKAIRILVQERLTQDAVAKANQTKEGLPVALDKHILGFDTGDAVLNEAAQILRLLHIEELRELQTKINEAIVAVQAIIADPKTDHRLGKVGR | – | – | binds | – |
